The values below come from article PMC5472185.

Amino acid sequences for entries named in this document (tags omitted). A change or cut given only in a name is not applied to a line headed by its entry.
UniProt Q8IKK0: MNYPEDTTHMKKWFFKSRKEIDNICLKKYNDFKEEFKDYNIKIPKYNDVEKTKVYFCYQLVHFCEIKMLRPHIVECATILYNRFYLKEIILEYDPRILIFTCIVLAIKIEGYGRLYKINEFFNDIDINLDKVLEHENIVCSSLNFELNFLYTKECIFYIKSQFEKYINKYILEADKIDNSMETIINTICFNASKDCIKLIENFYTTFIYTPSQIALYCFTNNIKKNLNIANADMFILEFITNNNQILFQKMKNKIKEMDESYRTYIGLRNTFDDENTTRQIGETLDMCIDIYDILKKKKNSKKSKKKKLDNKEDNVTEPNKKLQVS
UniProt P61075: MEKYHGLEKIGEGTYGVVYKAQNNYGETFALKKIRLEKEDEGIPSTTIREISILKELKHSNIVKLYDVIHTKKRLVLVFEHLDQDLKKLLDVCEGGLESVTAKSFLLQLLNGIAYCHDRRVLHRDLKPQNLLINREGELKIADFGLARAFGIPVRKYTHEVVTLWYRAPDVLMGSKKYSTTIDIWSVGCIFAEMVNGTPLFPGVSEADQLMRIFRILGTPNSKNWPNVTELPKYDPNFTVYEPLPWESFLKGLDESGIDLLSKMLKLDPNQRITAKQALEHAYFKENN

The target in the experiment is PfCyc1-smHA (full-length P. falciparum Cyc1 fused to spaghetti monster HA) (Plasmodium falciparum) (UniProt Q8IKK0). Nature of the experiment: affinity purification with mass spectrometry; schizonts 36 to 48 h postinfection lysed in 0.5% Triton X-100 in PBS, diluted 1:2 into TBST, immunoprecipitated with anti-HA magnetic beads at room temperature for 30 min; whole lane by LC/MS/MS; biological duplicates; smHA alone as control.

No constants are given. Whether binding was seen depends on the method and setting. Binding seen in cells or lysates may run through a third protein. A yes stands for co-enrichment or nearness to the bait. Other partners may have been found. A no says only that the protein was not detected with the bait.

With PfPK5 (from UniProt P61075 1-288), the binding entry is “no binding”.

B1: PfMRK (protein, UniProt P90584 1-324)
chain: MENNSTERYIFKPNFLGEGSYGKVYKAYDTILKKEVAIKKMKLNEISNYIDDCGINFVLLREIKIMKEIKHKNIMSALDLYCEKDYINLVMEIMDYDLSKIINRKIFLTDSQKKCILLQILNGLNVLHKYYFMHRDLSPANIFINKKGEVKLADFGLCTKYGYDMYSDKLFRDKYKKNLNLTSKVVTLWYRAPELLLGSNKYNSSIDMWSFGCIFAELLLQKALFPGENEIDQLGKIFFLLGTPNENNWPEALCLPLYTEFTKATKKDFKTYFKIDDDDCIDLLTSFLKLNAHERISAEDAMKHRYFFNDPLPCDISQLPFNDL
With B1, the binding entry is on record as “binds”.
